Data published in PubChem BioAssay AID2551 (National Center for Advancing Translational Sciences (NCATS), 2010).
Hit rate of the full screen: of about 310,000 compounds, about 17,000 (5.5%) were called active. This list was built around the results that the source calls inconclusive (neither active nor inactive); the mix of calls is not that of the screen. Calls come from the whole dose curve; as a rule, active = well fitted inhibition curve with a large enough effect; inconclusive = small, poorly fitted or top-dose-only effect, or effect the other way; inactive = no such curve, though single readings can be large or run the other way. Where the call is inconclusive, the potency comes from a doubtful curve fit.
% is set by controls: 0 for no effect and ±100 for the full control effect; potency is the fitted concentration of half-maximal effect.
Note: nearly all actives have a fitted effect of over 60% in size.

Amino acid sequences for entries named in this document (tags omitted). A change or cut given only in a name is not applied to a line headed by its entry.
UniProt P51450: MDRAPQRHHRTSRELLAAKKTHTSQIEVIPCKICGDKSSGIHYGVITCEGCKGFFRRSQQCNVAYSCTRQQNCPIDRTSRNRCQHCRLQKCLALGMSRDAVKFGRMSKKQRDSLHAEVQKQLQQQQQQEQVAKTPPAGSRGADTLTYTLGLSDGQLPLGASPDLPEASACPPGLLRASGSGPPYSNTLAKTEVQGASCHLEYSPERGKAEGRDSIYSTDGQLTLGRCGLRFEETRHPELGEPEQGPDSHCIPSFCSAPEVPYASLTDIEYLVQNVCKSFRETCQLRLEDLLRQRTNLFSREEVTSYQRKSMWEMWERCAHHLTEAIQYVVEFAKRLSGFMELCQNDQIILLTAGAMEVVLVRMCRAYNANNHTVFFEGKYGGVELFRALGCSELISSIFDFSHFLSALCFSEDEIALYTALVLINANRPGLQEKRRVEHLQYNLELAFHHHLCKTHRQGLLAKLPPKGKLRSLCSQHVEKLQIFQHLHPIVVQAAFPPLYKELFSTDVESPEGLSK

Each molecule was assayed against Nuclear receptor ROR-gamma (Mus musculus) (UniProt P51450) (assay: qHTS for inhibitors of ROR gamma transcriptional activity). Details: Drosophila S2 Gal4-RORgamma UAS-luciferase reporter, 20 h; activity change, negative = inhibition: at 53.6 µM (top of the series).
How it was run: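 A Gal4/UAS one-hybrid system in insect cells: metallothionein-promoter Gal4–ROR gamma fusion plus Photinus luciferase reporter. Copper sulfate 700 uM final, 20 hr ambient incubation, luminescent detection after 10 min with reagent.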
With `O=C(CSc1nnc(NC(=O)c2ccccc2)s1)NCc1ccco1` the Potency was inconclusive: 35.5 µM [inhibitor, single point].
In the case of `CCCC1=C(C(=O)OCC)C(c2ccc(OC)c(CSc3ccccn3)c2)C(C#N)=C(N)O1` (stereo not drawn), the Potency is reported as inconclusive: 12.6 µM [activator, partial curve].
With `Cn1nnc(NC(=O)c2cccs2)n1` the “activity change, negative = inhibition” value was inactive: 30.9%.
For `CN(C)CCCN(C(=O)c1ccc(S(=O)(=O)N2CCc3ccccc3C2)cc1)c1nc2ccc(F)cc2s1`, the Potency was inconclusive: 14.1 µM [inhibitor, single point].
With `NC(=O)NC(=O)COC(=O)CN1C(=O)C2CCCCC2C1=O` (stereo not drawn) the Potency was inconclusive: 17.8 µM [inhibitor, partial curve].
In the case of `CC(C)CC(=O)N1CCN(C(=O)c2ccc(-c3ccccc3)cc2)CC1`, the Potency is reported as inconclusive: 15.8 µM [activator, single point].
In the case of `Cc1ccsc1C(=O)NCC(=O)OCc1ccccc1`, the “activity change, negative = inhibition” value is reported as inactive: 7.3%.
In the case of `CC1CCC/C(=N\NC(=S)NCc2ccccc2)C1` (stereo not drawn), the Potency is reported as active: 11.2 µM.
In the case of `N#Cc1cc2c(nc1SCC(=O)Nc1nccs1)CCCCC2`, the Potency is reported as inconclusive: 17.8 µM [inhibitor, single point].
`[O-][n+]1ccc(C(O)c2ccccc2)cc1` (stereo not drawn) was tested, and the Potency was inconclusive: 0.158 µM [activator, single point].
In the case of `COc1ccc(C(=O)O)cc1NS(=O)(=O)c1cccc2nsnc12`, the Potency is reported as inconclusive: 0.282 µM [inhibitor, single point].
With `Cc1ccc(-n2c(-c3c(-c4ccccc4)noc3C)n[nH]c2=S)cc1` the Potency was active: 4.47 µM.
With `CCOc1ccccc1NC(=O)C(Sc1ccccc1)c1ccccc1` (stereo not drawn) the “activity change, negative = inhibition” value was inactive: 4.37%.
In the case of `C(=N\Nc1nncn1/N=C/c1ccco1)/c1ccco1`, the Potency is reported as inconclusive: 7.08 µM [inhibitor, partial curve].
With `N#Cc1c2c(c(N3CCN(c4ccccn4)CC3)n3c1nc1ccccc13)CCC2` the Potency was inconclusive: 5.62 µM [inhibitor, single point].
In the case of `COc1ccc2cc(CN(C(=O)Nc3ccccc3OC)C3CCCC3)c(=O)[nH]c2c1`, the “activity change, negative = inhibition” value is reported as inactive: 15.2%.
With `Brc1ccc(Nc2c3c(nc4ncnn24)CCC3)cc1` the Potency was active: 12.6 µM.
For `COc1ccc(-c2nc(CN3CCCCC3c3nccn3C)c(C)o2)c(C)c1C` (stereo not drawn), the Potency was active: 4.47 µM.
`COC(=O)c1ccc(CSc2nnc(-c3c[nH]c4ccccc34)n2-c2ccccc2)cc1` was tested, and the Potency was inconclusive: 10 µM [activator, partial curve].
`Cc1c(C(=O)Nc2nc3ccccc3[nH]2)oc2ccccc12` was tested, and the Potency was active: 0.891 µM.
With `Brc1cc(Cc2nnc(-c3ccccc3)o2)c(Br)s1` the Potency was inconclusive: 35.5 µM [activator, single point].
`COc1ccc(NC(=S)NCCc2ccc(F)cc2)c(OC)c1` was tested, and the Potency was inconclusive: 15.8 µM [inhibitor, single point].
In the case of `O=C(Nn1cnnc1)C1Cc2ccccc2CN1S(=O)(=O)c1ccc(F)cc1` (stereo not drawn), the Potency is reported as inconclusive: 15.8 µM [activator, single point].
In the case of `O=C(Nc1cccc2ccccc12)c1ccc([N+](=O)[O-])s1`, the “activity change, negative = inhibition” value is reported as inactive: -30%.
With `Cc1ccccc1Nc1c(C)c(C)nc2ncnn12` the Potency was inconclusive: 31.6 µM [activator, single point].
`CC(C)C[C@H](NC(=O)NCc1ccccc1Cl)C(=O)O` was tested, and the “activity change, negative = inhibition” value was inactive: -6.82%.
In the case of `COC(=O)c1ccc(NC(=O)Nc2cccc(F)c2)cc1`, the Potency is reported as inconclusive: 20 µM [activator, single point].
`CN(C)CCCN(C(=O)c1ccc(S(=O)(=O)N(C)C2CCCCC2)cc1)c1nc2ccc(Br)cc2s1` was tested, and the Potency was inconclusive: 35.5 µM [inhibitor, single point].
`CC(C)CNC(=S)NC1CC2CCCC(C1)N2Cc1cccs1` (stereo not drawn) was tested, and the Potency was active: 11.2 µM.
In the case of `CC(C)NC(=O)c1ccc2c(c1)S(=O)(=O)c1ccccc1C2=O`, the “activity change, negative = inhibition” value is reported as inactive: -2.03%.
With `O=C1CC(c2ccccc2)=Nc2ccccc2N1` the Potency was inconclusive: 35.5 µM [activator, single point].
In the case of `CCOC(=O)c1c(CNc2ccncc2)n(C)c2cc(Br)c(O)cc12`, the “activity change, negative = inhibition” value is reported as inactive: -8.44%.
In the case of `COc1ccc(/C=C/C(=O)NCCc2nc3ccccc3[nH]2)cc1`, the Potency is reported as inconclusive: 0.112 µM [inhibitor, full curve, poor fit].
For `CCCCCCCCCCCCC/C=C/C(O)C(COP(=O)(O)OCCN)NC(=O)CCCCCCCCCCCCCCCCC` (stereo not drawn), the “activity change, negative = inhibition” value was inactive: -12.7%.
For `CCN(CC(=O)NCc1ccc(F)cc1)Cc1cc(=O)n2ccsc2n1`, the “activity change, negative = inhibition” value was inactive: 6.14%.
With `O=C(Oc1cccc(OC(=O)c2ccco2)c1)c1ccco1` the “activity change, negative = inhibition” value was inactive: 20.2%.
In the case of `O=C(NCC1CCCO1)c1ccc2c(=O)n(Cc3ccc(Cl)cc3)c(=S)[nH]c2c1` (stereo not drawn), the Potency is reported as inconclusive: 17.8 µM [inhibitor, partial curve, poor fit].
For `Cc1ccc(S(=O)(=O)NCc2cc(=O)n(C)c(=O)n2C)cc1C`, the “activity change, negative = inhibition” value was inactive: -2.22%.
`COc1ccc2c(c1)CCC1C2=NN(/C(C)=C\C(C)=O)C1c1ccc(F)cc1` (stereo not drawn) was tested, and the Potency was inconclusive: 22.4 µM [inhibitor, single point].
With `Cc1cc(C)c(C(=O)/C=C/c2cccc3ccccc23)c(=O)[nH]1` the Potency was inconclusive: 7.94 µM [inhibitor, single point].
With `CC(C)(C)c1cc(C(=O)N2CCN(c3ncccn3)CC2)ccn1` the Potency was inconclusive: 20 µM [activator, single point].
In the case of `O=c1oc2ccccc2c(O)c1C=NCc1ccccn1`, the Potency is reported as active: 0.562 µM.
In the case of `Cc1cc(C(=O)CSc2nnc(-c3cccs3)o2)c(C)n1-c1ccccc1`, the Potency is reported as inconclusive: 20 µM [inhibitor, partial curve].
In the case of `CC1CCN(C2=NN3C(=N)/C(=C\c4ccc(OC(=O)c5ccco5)cc4)C(=O)N=C3S2)CC1`, the Potency is reported as inconclusive: 35.5 µM [inhibitor, single point].
With `COc1ccc(C2/C=C\CN(C(=O)C3CCCCC3)C(C)C(=O)N2Cc2ccc(F)cc2)cc1` (stereo not drawn) the Potency was inconclusive: 35.5 µM [activator, single point].
In the case of `CCOC(=O)C1CCCN(c2cc(C)nc3cc(-c4ccc(Cl)cc4)nn23)C1` (stereo not drawn), the Potency is reported as inconclusive: 0.316 µM [activator, full curve, poor fit].
`Cc1cc(C)n(CCCC(=O)O)n1` was tested, and the “activity change, negative = inhibition” value was inactive: 0.691%.
`COc1ccc(/C=C/C(=O)Oc2ccc(C)c(C)c2)cc1OC` was tested, and the “activity change, negative = inhibition” value was inactive: 40.2%.
With `C=Cc1c(C)/c2[n-]/c1=C\c1[n-]c(c(CC)c1C)/C=c1\[n-]c3c(c1C)C(=O)C(C(=O)[O-])C=3c1[n-]c(c(C)c1CCC(=O)[O-])\C=2.[Cu].[Na+].[Na+]` (stereo not drawn) the Potency was inconclusive: 14.1 µM [inhibitor, partial curve].
With `Cc1ccc(N2CC(C(=O)N3CCCCC3)CC2=O)cc1C` (stereo not drawn) the “activity change, negative = inhibition” value was inactive: 2.13%.
For `c1csc(-c2nc(NCC3CCCO3)c3ccccc3n2)c1` (stereo not drawn), the Potency was inconclusive: 28.2 µM [activator, single point].
`O=C(c1ccc(Cl)cc1)C1CCN(C(=O)NC2CCCCC2)CC1` was tested, and the Potency was inconclusive: 0.126 µM [activator, full curve, poor fit].
`N[C@@H]1CCN(O)C1=O` was tested, and the Potency was “inactive”.
`COc1ccc2nc(C)cc(N3CCC(C(N)=O)CC3)c2c1` was tested, and the “activity change, negative = inhibition” value was inactive: -9.36%.
With `CCNC(=S)Nc1ccc2cn[nH]c2c1` the “activity change, negative = inhibition” value was inactive: -2.3%.
For `Cc1ccc(C(=O)NC2CCCc3ccccc32)o1` (stereo not drawn), the “activity change, negative = inhibition” value was inactive: -11.2%.
For `NS(=O)(=O)c1ccc(CCNC(=O)c2cc(-c3ccc(Br)cc3)nc3ccccc23)cc1`, the Potency was active: 3.55 µM.
For `CCOc1ccc(NC(=O)C2C(c3ccccc3)C2(Cl)Cl)cc1` (stereo not drawn), the “activity change, negative = inhibition” value was inactive: 36.5%.
`COCC(C)NC(=O)CSc1nc2ccccc2n1CCc1ccccc1` (stereo not drawn) was tested, and the Potency was inconclusive: 5.62 µM [activator, partial curve, poor fit].
In the case of `COc1cc(C(=O)Oc2c(CN3CCOCC3)cc(Cl)c3cccnc23)cc(OC)c1OC`, the Potency is reported as active: 4.47 µM.
In the case of `CC1(C)CC(N=c2cc(-c3ccccc3)oc3ccc(Cl)cc23)CC(C)(C)N1`, the Potency is reported as inconclusive: 15.8 µM [inhibitor, single point].
`O=c1[nH]c(C2CCN(S(=O)(=O)Cc3ccccc3)CC2)nc2c1nnn2Cc1ccccc1Cl` was tested, and the Potency was inconclusive: 11.2 µM [activator, partial curve, poor fit].
In the case of `COc1cc(NS(=O)(=O)c2ccc(NC(=S)NC(=O)c3ccc(Br)cc3)cc2)ncn1`, the “activity change, negative = inhibition” value is reported as inactive: 30%.
For `COc1ccc(NS(=O)(=O)c2ccc3nc(COc4ccc(Cl)c(C)c4)[nH]c3c2)cc1`, the Potency was inconclusive: 31.6 µM [inhibitor, single point].
With `CCC(=O)NC(=S)Nc1ccc(OC)cc1OC` the Potency was active: 11.2 µM.
`Nc1c(C(=O)Nc2ccccc2)nnn1-c1ccc2c(c1)OCCO2` was tested, and the Potency was active: 10 µM.
With `O=C(Cn1nnc(-c2ccc(S(=O)(=O)N3CCCC3)cc2)n1)Nc1ccccc1-n1cccc1` the Potency was inconclusive: 1.26 µM [inhibitor, single point].
In the case of `COc1cccc(Nc2nc3ccccc3nc2NS(=O)(=O)c2cccs2)c1`, the Potency is reported as inconclusive: 11.2 µM [activator, partial curve].
With `CCCCc1ccc(NC(=O)CSc2nnc(C)c(=O)n2N)cc1` the Potency was inconclusive: 1 µM [activator, full curve, poor fit].
In the case of `COc1ccc(C(=O)N/N=C(\C)CC(=O)Nc2cccc(C(F)(F)F)c2)cc1`, the Potency is reported as inconclusive: 12.6 µM [inhibitor, single point].
With `O=C(Nc1ccc(S(=O)(=O)N2CCCC2)cc1)c1ccc(CN2CCOCC2)cc1` the Potency was inconclusive: 31.6 µM [activator, single point].
With `O=C(CSc1nc2ccccc2s1)NCCOc1ccccc1` the Potency was inconclusive: 15.8 µM [activator, partial curve, poor fit].
With `CC(C)CC(=O)NC(=S)Nc1ccccc1C(=O)Nc1ccccc1` the Potency was inconclusive: 35.5 µM [inhibitor, single point].
